Results deposited as PubChem BioAssay AID504791 (Drosophila RNAi Screening Center, 2011)
Test: 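Factors in Argonaute-based small RNA production and activity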 (primary screen). System: Drosophila S2-derived reporter cells. Knock-down reagent: long dsRNA against Drosophila genes, about 150-250 ng dsRNA per well (siRNA assay); about 80-120 ng (miRNA assay). Duration: about 5 days (siRNA assay); about 4 days (miRNA assay). Conditions: copper sulfate induction of reporters: 25 µM (siRNA assay); 200 mM stated (miRNA assay), 1-2 days before reading. Measured: 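Dual luciferase assay: Renilla to firefly signal ratio in each well, scaled to the mean ratio of its plate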. Hit rule: 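a well was a first-pass pick when its plate-scaled ratio rose above 1.5 (siRNA assay) or 1.6 (miRNA assay), or dropped below 0.6; a gene counted only if two separate dsRNAs agreed on retest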.
The deposit covers about 23,000 reagents; this is a random part of those with a known target gene and a result. Of all reagents, 199 (0.86%) are marked active. 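Plate-scaled ratios behind the calls are not deposited; printed light signals are raw; many rows marked increased or decreased are still called inactive.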 Names joined by + are all predicted targets of the reagent. No sequences are given here. The record does not give: the direction of the score.

no.	target gene	DRSC id	stable siRNA reporter change	miRNA reporter change	stable assay Renilla, run 1 (luminescence)	stable assay firefly, run 1 (luminescence)	outcome
1	Ace (GeneID 41625)	DRSC12959			5012	3.29e5	inactive
2	Ace (GeneID 41625)	DRSC14100			9731	4.81e5	inactive
3	sau (GeneID 33402)	DRSC00694		reporter ratio lowered past the hit cutoff	8487	5.51e5	inactive
4	CG4467 (GeneID 42747)	DRSC15585			7794	3.79e5	inactive
5	Fdh (GeneID 41311)	DRSC16670			7754	3.77e5	inactive
6	Cyt-c-d (GeneID 34995)	DRSC03309			6790	5.36e5	inactive
7	CG10962 (GeneID 31824)	DRSC18421			7710	3.54e5	inactive
8	Or19b + Or19a	DRSC22604			4067	3.98e5	inactive
9	lectin-30A (GeneID 53541)	DRSC02560			8275	3.62e5	inactive
10	Task7 (GeneID 41125)	DRSC16477			7665	3.68e5	inactive
11	RpL29 (GeneID 37430)	DRSC04650			6130	3.95e5	inactive
12	CG10916 (GeneID 37081)	DRSC06012			9631	2.93e5	inactive
13	NFAT (GeneID 32321)	DRSC18991			4879	4.31e5	inactive
14	NFAT (GeneID 32321)	DRSC19393			5834	6.35e5	inactive
15	Tsr1 (GeneID 40360)	DRSC11821			8902	4.66e5	inactive
16	CG18586 (GeneID 38659)	DRSC10325			6558	4.16e5	inactive
17	Cyp4d20 (GeneID 38311)	DRSC08654			7963	4.32e5	inactive
18	CG8206 (GeneID 32516)	DRSC20093			5923	2.55e5	inactive
19	CG30411 (GeneID 246600)	DRSC04004			4911	4.22e5	inactive
20	Obp46a (GeneID 36088)	DRSC06220			7103	4.25e5	inactive
21	CG13361 (GeneID 31019)	DRSC17896			6091	2.92e5	inactive
22	att-ORFB + DPCoAC	DRSC15556			9515	5.54e5	inactive
23	Ca-beta (GeneID 34557)	DRSC02406			6767	3.61e5	inactive
24	Ca-beta (GeneID 34557)	DRSC02407			6699	3.99e5	inactive
25	Ca-beta (GeneID 34557)	DRSC03285			5554	5.05e5	inactive
26	Ca-beta (GeneID 34557)	DRSC21432			8708	4.38e5	inactive
27	CG1943 (GeneID 40844)	DRSC12576			7754	4.00e5	inactive
28	Vsp37A (GeneID 31006)	DRSC18794			6275	3.82e5	inactive

11 entries from above, reduced to “stable assay Renilla, run 1 (luminescence)”:
lectin-30A (GeneID 53541) [DRSC02560]: 8275
Task7 (GeneID 41125) [DRSC16477]: 7665
RpL29 (GeneID 37430) [DRSC04650]: 6130
CG10916 (GeneID 37081) [DRSC06012]: 9631
NFAT (GeneID 32321) [DRSC18991]: 4879
NFAT (GeneID 32321) [DRSC19393]: 5834
Tsr1 (GeneID 40360) [DRSC11821]: 8902
CG18586 (GeneID 38659) [DRSC10325]: 6558
Cyp4d20 (GeneID 38311) [DRSC08654]: 7963
CG8206 (GeneID 32516) [DRSC20093]: 5923
CG30411 (GeneID 246600) [DRSC04004]: 4911

More entries follow:
no.	target gene	DRSC id	stable siRNA reporter change	miRNA reporter change	stable assay Renilla, run 1 (luminescence)	stable assay firefly, run 1 (luminescence)	outcome
29	Acsx1R (GeneID 42352)	DRSC14339			8323	3.60e5	inactive
30	CG15390 (GeneID 33422)	DRSC00404			7694	3.82e5	inactive
31	sals (GeneID 41377)	DRSC14925			9167	6.03e5	inactive
32	sals (GeneID 41377)	DRSC16113			7127	3.91e5	inactive
33	CG30340 (GeneID 246550)	DRSC05167		reporter ratio raised past the hit cutoff	4878	4.23e5	inactive
34	Ugt36A1 + CG15418	DRSC00432	reporter ratio lowered past the hit cutoff		3855	4.68e5	inactive
35	CG12682 (GeneID 31415)	DRSC17873			5831	2.60e5	inactive
36	Polr3I (GeneID 32678)	DRSC19922			7451	5.04e5	inactive
37	mTerf3 (GeneID 40279)	DRSC11759			7639	2.79e5	inactive
38	bchs (GeneID 33819)	DRSC03126			8090	4.95e5	inactive
39	CG6262 (GeneID 36833)	DRSC06971			4587	1.84e5	inactive
40	CG6262 (GeneID 36833)	DRSC23105			3155	3.34e5	inactive
41	Pcyt1 (GeneID 117353)	DRSC08157			6504	2.89e5	inactive
42	CkIIbeta2 (GeneID 37300)	DRSC07361			5340	3.69e5	inactive
43	cpo (GeneID 45840)	DRSC13265			5220	5.07e5	inactive
44	CG3335 (GeneID 39119)	DRSC10358			4967	2.73e5	inactive
45	CG13771 (GeneID 33933)	DRSC02277			7890	3.49e5	inactive
46	CG40053 (retired record) (GeneID 3355092)	DRSC20833			3499	3.63e5	inactive
47	CG14854 (GeneID 41761)	DRSC14978			7940	4.03e5	inactive
48	pon (GeneID 31394)	DRSC18823			6268	3.20e5	inactive
49	CG14190 (GeneID 32891)	DRSC19545			5930	3.95e5	inactive
50	pxb (GeneID 41899)	DRSC13110	reporter ratio lowered past the hit cutoff		3079	4.48e5	inactive
51	pxb (GeneID 41899)	DRSC14996			2700	2.45e5	inactive
52	pxb (GeneID 41899)	DRSC14997			6658	4.46e5	inactive
53	pxb (GeneID 41899)	DRSC22225			10458	6.57e5	inactive
54	CG7294 (GeneID 34470)	DRSC03041			7343	4.76e5	inactive
55	CG30270 (GeneID 251324)	DRSC22890			4240	3.98e5	inactive
56	CG6380 (GeneID 35040)	DRSC02950			7235	4.29e5	inactive
57	Stacl + CG8179 (retired record)	DRSC07091	reporter ratio raised past the hit cutoff		3271	2.55e5	inactive
58	Stacl + CG8179 (retired record)	DRSC23019			4140	3.23e5	inactive
59	amon (GeneID 43215)	DRSC13784			5702	3.73e5	inactive
60	amon (GeneID 43215)	DRSC16900			4859	4.50e5	inactive
61	comm2 (GeneID 39716)	DRSC09881			7182	3.60e5	inactive
62	comm2 (GeneID 39716)	DRSC10877			7435	4.33e5	inactive
63	Cyp4p2 (GeneID 35946)	DRSC07373			8731	5.65e5	inactive
64	HtrA2 (GeneID 41756)	DRSC16425			6607	3.95e5	inactive
65	Cpr12A (GeneID 32309)	DRSC19722			5643	4.36e5	inactive
66	CG13068 (GeneID 39784)	DRSC09951			7123	3.81e5	inactive
67	CG17199 (GeneID 42401)	DRSC15192			8143	3.67e5	inactive
68	alphaTub85E (GeneID 41183)	DRSC16899			5932	3.37e5	inactive
69	Akh (GeneID 38495)	DRSC08138			6222	3.75e5	inactive
70	fs(1)K10 (GeneID 47781)	DRSC18775			6842	3.06e5	inactive
71	Esyt2 (GeneID 42929)	DRSC16082			9106	3.71e5	inactive
72	CG13157 (GeneID 36355)	DRSC06282			6484	3.71e5	inactive
73	mRRF1 (GeneID 39067)	DRSC10421			8106	3.49e5	inactive
74	CG32026 (GeneID 317829)	DRSC08950			4280	3.58e5	inactive
75	CG4991 (GeneID 32695)	DRSC19928			7292	4.42e5	inactive
76	Capa (GeneID 43541)	DRSC15058			7078	3.85e5	inactive
77	Ubr3 (GeneID 31713)	DRSC17987	reporter ratio raised past the hit cutoff		10108	3.34e5	inactive
78	Ubr3 (GeneID 31713)	DRSC17997			5766	2.66e5	inactive
79	Mtl (GeneID 43319)	DRSC16751			4447	4.17e5	inactive
80	CG2812 (GeneID 37801)	DRSC04319	reporter ratio raised past the hit cutoff		8078	3.11e5	inactive
81	CG40341 (retired record) (GeneID 3885621)	DRSC01767			5399	3.59e5	inactive
82	CG40341 (retired record) (GeneID 3885621)	DRSC03750			6019	3.67e5	inactive
83	CG33299 (GeneID 2768912)	DRSC01085			4975	4.23e5	inactive
